# According to patent US7371742B2, “Porphyrin derivatives for photodynamic therapy” (Institut Curie, priority 2001, dated 2008):
# Key:
# [1] = tested on: RBY-79 (indifferently named Y-79) cells; assay: RBY-79 (Y79) cell cytotoxicity / photocytotoxicity; conditions: IC50 with light/IC50 without light
# [2] = tested on: human colic adenocarcinoma cell line HT29; assay: HT29 cell survival (MTT assay) after 24 h incubation, with or without light irradiation; conditions: IC50 with light/IC50 without light
Compound,"IEff. Efficiency Index, Y79 [1]","IEff. Efficiency Index, HT 29 [2]","IEff. Efficiency Index, Y79 ([1]; listed as TPP(p-O-TEG-S-α-MannOH)3)"
"5,10,15-Tri(3-O-β-D-glucosylphenyl)-2,3-chlorin and 5,10,15-tri(3-O-β-D-glucosylphenyl)-7,8-chlorin [Compound 55]",IEff = 0.46,IEff < 0.38,–
"5,10,15-tri(para-O-diethyleneglycoloxyphenyl)-20-phenylporphyrin [Compound 75]",IEff = 0.27,IEff = 0.66,–
"OC[C@H]1O[C@@H](Sc2c(F)c(F)c(-c3c4nc(c(-c5c(F)c(F)c(S[C@@H]6O[C@H](CO)[C@@H](O)[C@H](O)[C@H]6O)c(F)c5F)c5ccc([nH]5)c(-c5c(F)c(F)c(S[C@@H]6O[C@H](CO)[C@@H](O)[C@H](O)[C@H]6O)c(F)c5F)c5nc(c(-c6c(F)c(F)c(S[C@@H]7O[C@H](CO)[C@@H](O)[C@H](O)[C@H]7O)c(F)c6F)c6ccc3[nH]6)C=C5)C=C4)c(F)c2F)[C@H](O)[C@@H](O)[C@@H]1O [Compound 25, TPP F4(p-S-β-GluOH)4]",IEff < 0.4,–,–
"O[C@@H]1[C@@H](O)[C@H](Sc2c(F)c(F)c(-c3c4nc(c(-c5c(F)c(F)c(S[C@@H]6OC[C@@H](O)[C@H](O)[C@H]6O)c(F)c5F)c5ccc([nH]5)c(-c5c(F)c(F)c(S[C@@H]6OC[C@@H](O)[C@H](O)[C@H]6O)c(F)c5F)c5nc(c(-c6c(F)c(F)c(S[C@@H]7OC[C@@H](O)[C@H](O)[C@H]7O)c(F)c6F)c6ccc3[nH]6)C=C5)C=C4)c(F)c2F)OC[C@H]1O [Compound 27, TPP F4(p-S-β-XylOH)4]",–,IEff < 0.5,–
"O[C@@H]1[C@@H](O)[C@H](Sc2c(F)c(F)c(-c3c4nc(c(-c5c(F)c(F)c(S[C@@H]6OC[C@@H](O)[C@H](O)[C@H]6O)c(F)c5F)c5ccc([nH]5)c(-c5c(F)c(F)c(S[C@@H]6OC[C@@H](O)[C@H](O)[C@H]6O)c(F)c5F)c5nc(c(-c6c(F)c(F)c(F)c(F)c6F)c6ccc3[nH]6)C=C5)C=C4)c(F)c2F)OC[C@H]1O [Compound 28, TPP F4(p-S-β-XylOH)3]",–,IEff < 0.26,–
"OC[C@H]1O[C@H](Sc2c(F)c(F)c(-c3c4nc(c(-c5c(F)c(F)c(S[C@H]6O[C@H](CO)[C@@H](O)[C@H](O)[C@@H]6O)c(F)c5F)c5ccc([nH]5)c(-c5c(F)c(F)c(S[C@H]6O[C@H](CO)[C@@H](O)[C@H](O)[C@@H]6O)c(F)c5F)c5nc(c(-c6c(F)c(F)c(S[C@H]7O[C@H](CO)[C@@H](O)[C@H](O)[C@@H]7O)c(F)c6F)c6ccc3[nH]6)C=C5)C=C4)c(F)c2F)[C@@H](O)[C@@H](O)[C@@H]1O [Compound 29, TPP F4(p-S-α-MannOH)4]",IEff < 0.33,IEff < 0.24,–
"O[C@@H]1[C@@H](O)[C@H](SCc2ccc(-c3c4nc(c(-c5ccc(CS[C@@H]6OC[C@@H](O)[C@H](O)[C@H]6O)cc5)c5ccc([nH]5)c(-c5ccc(CS[C@@H]6OC[C@@H](O)[C@H](O)[C@H]6O)cc5)c5nc(c(-c6ccc(CS[C@@H]7OC[C@@H](O)[C@H](O)[C@H]7O)cc6)c6ccc3[nH]6)C=C5)C=C4)cc2)OC[C@H]1O [Compound 64, TPP(p-CH2-S-β-XylOH)4]",–,IEff < 0.45,–
"OC[C@H]1O[C@@H](SCc2ccc(-c3c4nc(c(-c5ccc(CS[C@@H]6O[C@H](CO)[C@@H](O)[C@H](O)[C@H]6O)cc5)c5ccc([nH]5)c(-c5ccc(CS[C@@H]6O[C@H](CO)[C@@H](O)[C@H](O)[C@H]6O)cc5)c5nc(c(-c6ccc(CS[C@@H]7O[C@H](CO)[C@@H](O)[C@H](O)[C@H]7O)cc6)c6ccc3[nH]6)C=C5)C=C4)cc2)[C@H](O)[C@@H](O)[C@@H]1O [Compound 65, TPP(p-CH2-S-β-GluOH)4]",–,IEff < 0.52,–
"OC[C@H]1O[C@H](SCc2ccc(-c3c4nc(c(-c5ccc(CS[C@H]6O[C@H](CO)[C@@H](O)[C@H](O)[C@@H]6O)cc5)c5ccc([nH]5)c(-c5ccc(CS[C@H]6O[C@H](CO)[C@@H](O)[C@H](O)[C@@H]6O)cc5)c5nc(c(-c6ccc(CS[C@H]7O[C@H](CO)[C@@H](O)[C@H](O)[C@@H]7O)cc6)c6ccc3[nH]6)C=C5)C=C4)cc2)[C@@H](O)[C@@H](O)[C@@H]1O [Compound 66, TPP(p-CH2-S-α-MannOH)4]",IEff = 0.54,IEff = 0.5,–
"OC[C@H]1O[C@H](SCCOCCOc2ccc(-c3c4nc(c(-c5ccc(OCCOCCS[C@H]6O[C@H](CO)[C@@H](O)[C@H](O)[C@@H]6O)cc5)c5ccc([nH]5)c(-c5ccc(OCCOCCS[C@H]6O[C@H](CO)[C@@H](O)[C@H](O)[C@@H]6O)cc5)c5nc(c(-c6ccccc6)c6ccc3[nH]6)C=C5)C=C4)cc2)[C@@H](O)[C@@H](O)[C@@H]1O [Compound 68, TPP(p-O-DEG-S-α-Mann)3]",–,IEff < 0.2,–
"OC[C@H]1O[C@H](SCCOCCOCCOc2ccc(-c3c4nc(c(-c5ccc(OCCOCCOCCS[C@H]6O[C@H](CO)[C@@H](O)[C@H](O)[C@@H]6O)cc5)c5ccc([nH]5)c(-c5ccc(OCCOCCOCCS[C@H]6O[C@H](CO)[C@@H](O)[C@H](O)[C@@H]6O)cc5)c5nc(c(-c6ccccc6)c6ccc3[nH]6)C=C5)C=C4)cc2)[C@@H](O)[C@@H](O)[C@@H]1O [Compound 74, 5,10,15-tri(para-10-S-α-D-thiomanosyloxy-O-triethylene glycoloxyphenyl)-20-phenylporphyrin]",IEff = 0.05,IEff = 0.46,"< 0,03"
"OC[C@H]1O[C@@H](Oc2ccc(-c3c4nc(c(-c5ccc(O[C@@H]6O[C@H](CO)[C@@H](O)[C@H](O)[C@H]6O)cc5)c5ccc([nH]5)c(-c5ccc(O[C@@H]6O[C@H](CO)[C@@H](O)[C@H](O)[C@H]6O)cc5)c5nc(c(-c6ccccc6)c6ccc3[nH]6)C=C5)C=C4)cc2)[C@H](O)[C@@H](O)[C@@H]1O [TPP(p-O-β-GluOH)3, reference compound]",IEff < 0.06,IEff < 0.1 =,–
"OC[C@H]1O[C@@H](Oc2ccc(-c3c4nc(c(-c5ccc(O[C@@H]6O[C@H](CO)[C@@H](O)[C@H](O)[C@H]6O)cc5)c5ccc([nH]5)c(-c5ccc(O[C@@H]6O[C@H](CO)[C@@H](O)[C@H](O)[C@H]6O)cc5)c5nc(c(-c6ccc(O[C@@H]7O[C@H](CO)[C@@H](O)[C@H](O)[C@H]7O)cc6)c6ccc3[nH]6)C=C5)C=C4)cc2)[C@H](O)[C@@H](O)[C@@H]1O [TPP(p-O-β-GluOH)4, reference compound]",IEff = 0.74,–,–
"Oc1ccc(-c2c3nc(c(-c4ccc(O)cc4)c4ccc([nH]4)c(-c4ccc(O)cc4)c4nc(c(-c5ccccc5)c5ccc2[nH]5)C=C4)C=C3)cc1 [TPP(p-OH)3, reference compound]",IEff < 0.1,IEff < 0.1,–
"Oc1ccc(-c2c3nc(c(-c4ccc(O)cc4)c4ccc([nH]4)c(-c4ccc(O)cc4)c4nc(c(-c5ccc(O)cc5)c5ccc2[nH]5)C=C4)C=C3)cc1 [TPP(p-OH)4, reference compound]",IEff = 0.06,IEff. = 0.11,–
"Oc1cccc(-c2c3nc(c(-c4cccc(O)c4)c4ccc([nH]4)c(-c4cccc(O)c4)c4nc(c(-c5cccc(O)c5)c5ccc2[nH]5)CC4)C=C3)c1 [m-THPC, reference compound]",IEff < 0.06,IEff < 0.08,–
TPC(m-O-β-GluOH)4 [Compound 54],IEff = 0.77,IEff < 0.3,–
TPP F4(p-S-β-GluOH)3 [Compound 26],IEff < 0.22,IEff = 0.26,–
TPP(p-OC3-S-α-MannOH)3 [Compound 24],IEff = 0.62,IEff = 1,–
TPP(p-OC3-S-β-GluOH)3 [Compound 23],IEff < 0.65,IEff = 0.85,–
"porfimer sodium [Photofrin ®, reference compound]",IEff = 0.67,IEff. = <0.5,–
